PubChem BioAssay AID504375 (National Center for Advancing Translational Sciences (NCATS), 2011)
Among all 1,600 compounds or so, about 25 (2%) were called active. Inconclusive results (about 7%) are left out. Calls follow the shape of the dose curve; as a rule, active = well fitted inhibition curve with a large enough effect; inconclusive = small, poorly fitted or top-dose-only effect, or effect the other way; inactive = no such curve, though single readings can be large or run the other way. The list shows a part of the results.

Amino acid sequences for entries named in this document (tags omitted).
UniProt Q01196, whole entry, looked up: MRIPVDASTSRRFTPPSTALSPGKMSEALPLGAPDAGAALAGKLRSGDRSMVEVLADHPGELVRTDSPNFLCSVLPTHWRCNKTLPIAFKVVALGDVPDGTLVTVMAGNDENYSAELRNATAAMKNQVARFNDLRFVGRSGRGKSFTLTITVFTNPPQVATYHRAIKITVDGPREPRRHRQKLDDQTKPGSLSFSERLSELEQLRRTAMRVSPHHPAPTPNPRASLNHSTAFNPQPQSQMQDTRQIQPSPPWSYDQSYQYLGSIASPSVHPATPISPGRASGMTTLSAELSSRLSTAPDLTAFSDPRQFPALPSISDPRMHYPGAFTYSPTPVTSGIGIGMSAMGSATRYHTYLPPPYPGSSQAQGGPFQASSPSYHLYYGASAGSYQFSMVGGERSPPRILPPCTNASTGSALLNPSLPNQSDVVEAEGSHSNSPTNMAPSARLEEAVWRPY
UniProt Q13951, whole entry, looked up: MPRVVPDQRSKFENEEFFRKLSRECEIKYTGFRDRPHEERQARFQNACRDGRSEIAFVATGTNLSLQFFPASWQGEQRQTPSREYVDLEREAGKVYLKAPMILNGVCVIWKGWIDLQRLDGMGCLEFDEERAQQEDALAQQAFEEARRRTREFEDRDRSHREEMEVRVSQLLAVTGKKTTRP

biological target: Runt-related transcription factor 1 (Homo sapiens) + Core-binding factor subunit beta (Homo sapiens) (UniProt Q01196+Q13951); assay: qHTS Assay for Compounds Blocking the Interaction Between CBF-beta and RUNX1 for the Treatment of Acute Myeloid Leukemia: Hit Validation with Orthogonal Assay; details: CBFbeta-RUNX1 binding orthogonal assay, biochemical; series mostly up to 41 µM; activity change, negative = inhibition: at the top concentration
Summary of the method: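 Compound was incubated for 30 min with biotin-RUNX1 plus His6-CBF-beta at 30 nM per protein. Binding was then detected by TR-FRET between terbium anti-His antibody and 5 nM streptavidin-XL665, read after 90 min, in the same buffer as the AlphaScreen primary assay.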
% is scaled to controls: 0 for no effect and ±100 for the full control effect.

SMILES | activity change, negative = inhibition
COc1cc(C)nc(NC(=S)N(C)C(=O)c2ccccc2)n1 | inactive: 5.33%
CSc1nc2cc(S(=O)(=O)N3CCCCC3)ccc2s1 | inactive: 1.66%
CN(CC(O)CN1CCOCC1)S(=O)(=O)O (stereo not drawn) | inactive: 15.8%
C/C(=N/NC(=O)CCc1c(C)n[nH]c1C)c1cccc([N+](=O)[O-])c1 | inactive: 37.8%
CN1CCN(c2nnc(-c3ccccc3)c(-c3ccccc3)n2)CC1 | inactive: 26.7%
CCN(c1cccc2ccccc12)S(=O)(=O)c1ccc(Cl)nc1 | inactive: 2.34%
Cc1ccc(CNS(=O)(=O)c2ccc(C(F)(F)F)cc2)n1C | inactive: -9.15%
O=C(/C=C/c1ccc(O)c(O)c1)c1ccccc1O | inactive: 15.8%
CCCCC(=O)Nc1ccc(NC(=S)NC(=O)c2ccco2)cc1OC | inactive: -1.9%
CCN(CC)S(=O)(=O)c1ccc(N=Nc2c(N)[nH]c(=O)[nH]c2=O)cc1 | inactive: 12.6%
Cc1ccc(S(=O)(=O)Oc2ccccc2/C=C2/SC(=O)NC2=O)cc1 | inactive: 26.1%
CC(C)c1ccc(-c2nc3ccccc3s2)cc1 | inactive: -8.49%
CCC(=O)Nc1cccc(C(=O)OC)c1 | inactive: 1.37%
COc1ccc(CC(=O)n2[nH]c(=O)ccc2=O)cc1OC | inactive: -2.94%
Nc1cc2ccncc2c2ccccc12 | inactive: 25.6%
O=C1N=C(N2CCc3ccccc3C2)S/C1=C\c1ccc(O)cc1 | inactive: 32.5%
O=C(/C=C/c1ccccc1Cl)Nc1ccccc1 | inactive: 10.6%
CC(C)[C@H](NC(=O)OC(C)(C)C)C(=O)N/N=C/c1ccc2nccnc2c1 | inactive: 30%
c1ccc(-c2n[nH]c(-c3ccccn3)n2)nc1 | inactive: -1.29% [at 82.4 µM]
Cc1cccc(C)c1NC(=S)N/N=C/c1ccc(C(=O)O)cc1 | inactive: -10.5%
Cc1ccc(Oc2ncccc2N)c2c1CCC2 | inactive: 26%
COc1ccc(C(=O)COc2ccc(C)cc2NC(C)=O)cc1 | inactive: 1.31%
Cc1ccc(Cn2c(N/N=C/c3ccncc3)nc3c2c(=O)n(C)c(=O)n3C)cc1 | inactive: 16.5%
COc1ccccc1C1=NOC(COc2ccc3c(C)cc(=O)oc3c2)C1 (stereo not drawn) | inactive: -2.08%
CCNc1ccc([N+](=O)[O-])cc1 | inactive: 6.14%

Single entries from the entries so far.
Cc1ccc(CNS(=O)(=O)c2ccc(C(F)(F)F)cc2)n1C – activity change, negative = inhibition: inactive: -9.15%
COc1ccc(CC(=O)n2[nH]c(=O)ccc2=O)cc1OC – activity change, negative = inhibition: inactive: -2.94%
CCC(=O)Nc1cccc(C(=O)OC)c1 – activity change, negative = inhibition: inactive: 1.37%
CN1CCN(c2nnc(-c3ccccc3)c(-c3ccccc3)n2)CC1 – activity change, negative = inhibition: inactive: 26.7%

(listing goes on)

SMILES | activity change, negative = inhibition
COC(CNc1ccc([N+](=O)[O-])c(NCC(OC)OC)c1C#N)OC | inactive: 37.5%
C#CCSc1nc(=O)c2cccnc2n1-c1ccc(C)cc1 | inactive: -2.96%
CCCc1cc(=O)c2ccc(OCC(C)=O)cc2o1 | inactive: -7.77%
O=S(=O)(Nc1ccc(Cl)cc1)c1ccc2c(c1)CCO2 | inactive: -5.63%
COc1ccc2c(c1)CCN1C2CCN2C(=O)CCC21 (stereo not drawn) | inactive: 8.67%
C/C(Cc1nnn(-c2cc(C)on2)n1)=N\O | inactive: -3.29%
CC(=O)NNC(=S)Nc1cccc(F)c1 | inactive: 4.2%
COc1cccc(/C=N/n2nnnc2N)c1 | inactive: 8.92%
NNC(=O)c1ccc(COc2ccc3ccccc3c2)o1 | inactive: 6.03%
c1ccc(Nc2nnc(-c3cccc4ccccc34)o2)cc1 | inactive: -3.52%
O=C(Nc1ccc(F)cc1)OCCOc1ccc(Br)cc1 | inactive: -3.27%
COc1ccc(/C(C)=N/NC(=O)Cn2nc([N+](=O)[O-])cc2C)cc1 | inactive: 15.2%
CC(C)(C)OC(=O)N[C@@H](Cc1ccccc1)c1nnc(SCC(N)=O)o1 | inactive: -1.79%
CC1(C)CCSC(/C=C/c2ccccc2)=N1 | inactive: 1.41%
Nc1c(Cl)ncnc1N/N=C/c1ccncc1 | inactive: 71.1%
COc1ccccc1C(=O)N1CCC(N2CCN(c3ccccc3OC)CC2)CC1 | inactive: 8.69%
COC(=O)c1ccc(Cn2nc([N+](=O)[O-])c(Br)c2C)cc1 | inactive: 26.6%
O=S(=O)(Nc1ccc(C(F)(F)F)cn1)c1ccccc1 | inactive: 13.6%
O=C(NCCC1CC1(Cl)Cl)Nc1ccccc1 (stereo not drawn) | inactive: 6.85%
C/C(O)=C(\C#N)P(=O)(c1ccccc1)c1ccccc1 | inactive: -5.22%
C(=N\N1CCN(c2ccccn2)CC1)/c1cccc2ccccc12 | inactive: 3.82%
CCOC(=O)N1CCC(NS(=O)(=O)c2ccc(C#N)cc2)CC1 | inactive: -5.19%
Cc1cc(C)n(-c2cc(C(C)(C)C)nc3c(-c4ccccc4)cnn23)n1 | inactive: 13.2%
Cc1ccc(OCc2ccc(C(=O)NN)o2)c([N+](=O)[O-])c1 | inactive: 4.87%
COc1ccc(/C=C2\CCc3c2nc2ccccc2c3C(=O)O)cc1OC | inactive: 14.8%

Gathered by group: the compounds so far containing an aryl thioether with sulfur outside any ring
SMILES | activity change, negative = inhibition
CSc1nc2cc(S(=O)(=O)N3CCCCC3)ccc2s1 | inactive: 1.66%
C#CCSc1nc(=O)c2cccnc2n1-c1ccc(C)cc1 | inactive: -2.96%
CC(C)(C)OC(=O)N[C@@H](Cc1ccccc1)c1nnc(SCC(N)=O)o1 | inactive: -1.79%

Further structures follow:

SMILES | activity change, negative = inhibition
Cc1ccc(-n2ncc(-c3nn[nH]n3)c2N)cc1 | inactive: 4.84%
O=C(CNC(=O)C(c1ccccc1)c1ccccc1)N/N=C\c1cccc(O)c1 | inactive: -3.07%
CCCCCCCC1(C)NC(=O)NC1=O (stereo not drawn) | inactive: -1.08%
CCOC(=O)C1=C(O)C(=O)N(C2CCCCC2)C1 | inactive: -3.06%
COc1ccc(/C=C/C(=O)NCCc2nc3ccccc3[nH]2)cc1 | inactive: 2.14%
O=C(CCC(=O)N1CCN(c2ccc(O)cc2)CC1)c1ccc(Br)cc1 | inactive: 5.95%
Cn1c(=O)c2c(Nc3ccc(F)cc3)cc(=O)n(-c3ccccc3)c2n(C)c1=O | inactive: -9.9%
Cc1nnsc1C(=O)N/N=C/c1ccccc1Cl | inactive: 13.4%
CCOc1ccc(Nc2nc(N)nc(CSC(=S)N3CCOCC3)n2)cc1 | inactive: -4.39%
Cc1cc(N2CCOCC2)n2ncc(-c3ccc(Cl)cc3)c2n1 | inactive: 11.1%
CC1=NNC(=O)C1Cc1ccc(F)cc1 (stereo not drawn) | inactive: -3.95%
O=S(=O)(Nc1cccc(CCc2ccccn2)c1)c1cc(Cl)ccc1Cl | inactive: -1.69%
Brc1cc(Br)cc(CN2CCSCC2)c1 | inactive: 5.09%
O=C(Oc1c(-c2ccccc2)c(=O)n2c3c(cccc13)CC2)c1ccccc1 | inactive: -10%
Cc1cc2c3ccccc3ncn2n1 | inactive: -1.43%
C=CCn1c(SCc2ccccc2Cl)nnc1-c1sc2nc(C)cc(C)c2c1N | inactive: 1.22%
c1ccc2c(c1)Nc1ccncc1S2 | inactive: -11.1%
Cc1nc([N+](=O)[O-])cn1CC(O)c1ccccc1 (stereo not drawn) | inactive: 20.8%
CCCNC(=S)Nc1ccccc1 | inactive: 1.82%
c1ccc(N2CCOCCOCCOCCOCC2)cc1 | inactive: -0.0612%
O=[N+]([O-])c1ccc2c(c1)S(=O)c1ccccc1-2 (stereo not drawn) | inactive: 56.5%
Cc1ccc(NC(=S)Nc2ccccn2)cc1C | inactive: 17.3%
CCN(CC)S(=O)(=O)c1cccc(N2CC(O)=C(c3ccccc3)C2=N)c1 | inactive: -2.1%
CCOC(=O)/C(C#N)=C/Nc1cc(F)ccc1C | inactive: -4.58%
Cc1c(O)nc2ccccn2c1=O | inactive: 8.73%

SMILES | activity change, negative = inhibition
O=C(/C=C/c1ccccc1)Nc1cccnc1Oc1ccccc1F | inactive: -0.428%
CSC(=Nc1ccccc1)Nc1ccccc1 | inactive: -2.42%
Cc1ccc(-c2c[n+](CC(=O)Nc3ccccc3C)c3n2CCC3)cc1 | inactive: -9.58%
Clc1ccc(Nc2ccc(Cl)nn2)cc1 | inactive: 6.5%
COC(=O)C(=Cc1ccccc1[N+](=O)[O-])C(=O)OC | inactive: -1.35%
COC(=O)c1ccc(Cn2cc([N+](=O)[O-])cn2)cc1 | inactive: 12.1%
CC(C)CC(=O)Nc1nnc(CSCc2ccc(F)cc2)s1 | inactive: 13.6%
CC(=O)c1ccc(S(=O)(=O)N2Cc3ccccc3CC2C(=O)O)cc1 (stereo not drawn) | inactive: -4.12%
COc1ccc(C2CN=NC23CCc2ccccc2C3=O)cc1 (stereo not drawn) | inactive: 3.69%
Cc1ccc2c(N)c(C(=O)c3ccccc3)sc2n1 | inactive: 61.8%
Cc1ccc2nc(C)c3c(c2c1)N(c1ccccc1)CC3 | inactive: 12.5%
Cc1cc2c(NS(=O)(=O)c3ccc(F)cc3)cccc2nn1 | inactive: 21.1%
CCOC(=O)N1CCN(CC(=O)Nc2sc(CC)cc2C(=O)c2ccc(OC)cc2)CC1 | inactive: 22.1%
Cc1cccc(CC(=O)c2c[nH]c3ccccc23)c1 | inactive: -0.122%
COC(=O)c1ccccc1N=Nc1c(C)n[nH]c1C | inactive: 14.1%
CC(C)C1N(C(N)=S)N=CC1(C)C (stereo not drawn) | inactive: 0.367%
Cc1cc(OCC(=O)c2cccc(C(F)(F)F)c2)n2cnnc2n1 | inactive: -0.0979%
CC(C)(C)N1CCC1C(N)=O (stereo not drawn) | inactive: -7.25%
O=[N+]([O-])c1cc(Cl)cc(/C=N/NC(=S)Nc2ccc(S(=O)(=O)N3CCOCC3)cc2)c1O | inactive: 36.7%
COc1ccccc1NC(=O)Nc1sccc1-c1nc2ccccc2s1 | inactive: 10.6%
COc1ccc(NC(=O)C2=NNC(=O)CC2)cc1S(=O)(=O)N1CCCCC1 | inactive: 8.22%
O=C(Nc1ccccc1)N1CCCC1c1cccs1 (stereo not drawn) | inactive: 1.38%
Cc1cccnc1NC(=O)c1csnn1 | inactive: -6.2%
CCCCCCOc1ccc(N2C(=O)CC(NCc3ccc(S(N)(=O)=O)cc3)C2=O)cc1 (stereo not drawn) | inactive: 3.9%
O=C(N/N=C/c1cccc2nccnc12)c1ccncc1 | inactive: 30.1%

SMILES | activity change, negative = inhibition
CC1=CC(=O)CC(C)(C)C1(O)/C=C/C(C)=C/C(=O)O (stereo not drawn) | inactive: -0.0489%
COc1cc(/C=N/Nc2ccc(S(N)(=O)=O)cc2[N+](=O)[O-])cc(OC)c1O | inactive: -1.88%
C/C(=C\C(=O)Nc1cscc1C)C(=O)O | inactive: -4.11%
Cc1[nH]c(=S)c(C#N)c(C)c1Cc1ccc(Cl)cc1Cl | inactive: -4.58%
CCOC(=O)c1nnn2c1nc(N1CCN(c3ccccc3)CC1)c1ccccc12 | inactive: -1%
COC(=O)c1ccc(CN2CCCCC2)cc1 | inactive: -1.75%
O=C1CN2CCC1C/C2=C\c1ccnc2c(Cl)cccc12 (stereo not drawn) | inactive: 11.1%
Cn1c(SCC(=O)N/N=C/c2ccncc2)nc2ccccc21 | inactive: 8.61%
CCOC(=O)c1sc(NNC(=O)c2ccc(C)cc2)nc1C | inactive: 8.71%
CC(C)(C)NC(=O)NCCc1ccccc1 | inactive: 2.28%
CC(=O)c1c(COC(=O)c2ccccc2Cl)nc2ccccc2[n+]1[O-] | inactive: 32.1%
CC(C)c1cc(C(C)C)n2nc(N)nc2n1 | inactive: -8.23%
O=C(c1ccc(-c2ccccc2)cc1)c1ccc([N+](=O)[O-])cc1 | inactive: 16.1%
COc1ccc2nc(-c3ccc(Cl)cc3)cc(C(=O)O)c2c1 | inactive: 34.7%
O=S(=O)(NCc1ccccn1)c1cc(OCC(F)(F)F)ccc1OCC(F)(F)F | inactive: 8.87%
CN(C(=O)Nc1ccc(C(C)(C)C)cc1)C1CCCCC1 | inactive: -20%
COc1ccc(CCNC(=S)NC(=O)c2c(-c3ccccc3Cl)noc2C)cc1OC | inactive: 4.43%
N#Cc1cccc(C#N)c1Oc1ccc(S(=O)(=O)Nc2ccc(Cl)cc2)cc1 | inactive: -2.57%
C=C(C)c1cccc(C(C)(C)NC(=O)N2CCN(c3ccccc3)CC2)c1 | inactive: -1.33%
COC(=O)C/C(N)=C(\C#N)C(=O)OC | inactive: 2.37%
COC(=O)c1cccnc1Oc1ccccc1 | inactive: -3.43%
Fc1ccccc1/C=N/n1c(-c2cccnc2)n[nH]c1=S | inactive: 10.1%
O=C(NC(=S)Nc1ccccc1N1CCCC1)c1cccs1 | inactive: -0.294%
